# Reference: PubChem BioAssay (NCATS)
# The chains behind the UniProt entries cited, without tags or fusion partners. Where a name states a change or a piece, a line headed by the entry shows the natural chain unless it says otherwise.
# UniProt P15289: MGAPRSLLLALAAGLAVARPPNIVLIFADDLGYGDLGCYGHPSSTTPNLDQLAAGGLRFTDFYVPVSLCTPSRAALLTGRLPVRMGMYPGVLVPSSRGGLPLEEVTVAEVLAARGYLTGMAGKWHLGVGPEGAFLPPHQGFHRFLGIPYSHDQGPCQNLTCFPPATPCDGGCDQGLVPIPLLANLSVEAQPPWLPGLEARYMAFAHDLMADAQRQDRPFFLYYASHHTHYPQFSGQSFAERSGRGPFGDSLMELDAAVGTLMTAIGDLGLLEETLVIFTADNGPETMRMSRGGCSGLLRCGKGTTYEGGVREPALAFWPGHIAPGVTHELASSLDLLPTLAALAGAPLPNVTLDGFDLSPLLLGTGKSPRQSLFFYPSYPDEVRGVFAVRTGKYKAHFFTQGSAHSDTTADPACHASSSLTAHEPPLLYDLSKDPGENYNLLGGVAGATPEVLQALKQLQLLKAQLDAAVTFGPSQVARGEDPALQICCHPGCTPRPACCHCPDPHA
# This list was built around the results that the source calls inconclusive (neither active nor inactive); the mix of calls is not that of the screen. For some of these results: A potency beside an inconclusive call is a rough fit, not a confirmed value. Activity calls are given as the source filed them. Unless noted, calls come from the whole dose curve; as a rule, active = well fitted curve in the direction sought with a large enough effect; inconclusive = small, poorly fitted or top-dose-only effect, or another doubt; inactive = no such curve, though single readings can be large; an effect the other way counts as inactive or inconclusive.
# Key:
# [1] = qHTS for Activators of Parkin Expression: LOPAC Validation Assay (NLuc Reporter) (AID 720572; note: potency is the fitted concentration of half-maximal effect)
# Summary of the method: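 Neuronal line stably carrying a FLuc/NLuc coincidence reporter under the Parkin promoter, seeded 24 h, then dosed in 7-point series for 24 h at 37 C. NLuc luminescence read after FLuc; normalized to DMSO and positive control (100%).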
# [2] = qHTS assay for cell viability of HEK293 cells (AID 743288); conditions: ATP luminescence (CellTiter-Glo), 18 h; note: potency is the fitted concentration of half-maximal effect; nearly all actives have a fitted effect of over 50% in size
# Summary of the method: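 HEK293 parental, 2,000 cells/well; ≥5 h pre-incubation 37 C; pintool compound addition; 18 h, 37 C; CellTiter-Glo 30 min RT; luminescence read.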
# [3] = qHTS Screen of the MIPE 4.0 Collection Against Ewings Sarcoma (TC71) (AID 1259253); note: nearly all actives have a fitted effect of over 40% in size; note: potency is the fitted concentration of half-maximal effect
# Summary of the method: (§1)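 Compound titrations go onto adherent log-phase cells 4 h after seeding, incubate 48 h at 37C, then CellTiter-Glo luminescence reports viability relative to DMSO and cell-free controls.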
# [4] = qHTS Screen of the MIPE 4.0 Collection Against Ewings Sarcoma (TC32) (AID 1259256); note: nearly all actives have a fitted effect of over 45% in size; note: potency is the fitted concentration of half-maximal effect;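 for viability (percent of control): 100% = DMSO-treated cells and 0% = medium-only wells without cells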
# Summary of the method: as §1
# [5] = qHTS Assay for Identifying Gametocytocidal Compounds (AID 743244); note: potency is the fitted concentration of half-maximal effect;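 for max response: % is set by controls: 0 for no effect and ±100 for the full control effect; actives lower the fluorescent signal which means gametocytes are killed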; conditions: P. falciparum 3D7 stage III-V gametocytes, alamarBlue, 72 h; max response: hits give low values
# Summary of the method: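 Compounds are pinned into medium, gametocytes (stage III–V, 3D7, 20,000 cells/well) added, and plates held 72 h at 37 °C in 5% CO2. AlamarBlue follows for 24 h before fluorescence reading.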
# [6] = qHTS Screen of the MIPE 4.0 Collection Against Ewings Sarcoma (EW8) (AID 1259255); note: nearly all actives have a fitted effect of over 35% in size; note: potency is the fitted concentration of half-maximal effect;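 for viability: 100% = DMSO-treated cells and 0% = medium-only wells without cells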
# Summary of the method: as §1
# [7] = Identifying Small Molecule Inhibitors of Pancreatic Cancer Stem Cells (A2780, Spheroid) (AID 1259357); conditions: Potency: A2780 spheroid viability; viability (percent of control): at 46.1 µM (top of the series); note: potency is the fitted concentration of half-maximal effect;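 note: spheroids pre-formed over 14 days in stem cell medium on hydrogel; compound exposure lasted 48 h before the ATP luminescence read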;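 for viability (percent of control): 100% = DMSO treated cells and 0% = wells without cells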
# Summary of the method: (§2)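 After a 4 h attachment period, compounds were pinned into wells and cultures held 48 h under standard incubator conditions. Viability was then measured as CellTiter-Glo luminescence following 10 min at room temperature.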
# [8] = Identifying Small Molecule Inhibitors of Pancreatic Cancer Stem Cells (SN12C, Adherent) (AID 1259358);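 note: cell survival measured after 48 h of compound exposure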; note: potency is the fitted concentration of half-maximal effect
# Summary of the method: (§3)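 Viability is scored by CellTiter-Glo luminescence 48 h after dosing, expressed as percent activity against vehicle and no-cell references. Spheroid formats rely on cells cultured 14 days in stem cell media beforehand.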
# [9] = Identifying Small Molecule Inhibitors of Pancreatic Cancer Stem Cells (Panc1, Spheroid) (AID 1259359); conditions: Panc1 spheroid cancer stem cell viability; viability, % of control: at 46.1 µM (top of the series) unless noted;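 note: compound exposure lasted 48 h before reading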; note: potency is the fitted concentration of half-maximal effect
# Summary of the method: as §3
# [10] = Identifying Small Molecule Inhibitors of Pancreatic Cancer Stem Cells (A278, Adherent) (AID 1259361); conditions: viability (% of control): at 46.1 µM (top of the series) unless noted;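 note: viability read after 48 h compound exposure; nearly all actives have a fitted effect of over 35% in size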;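 for viability (% of control): 100% = DMSO-treated cells and 0% = cell-free media-only wells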
# Summary of the method: as §3
# [11] = qHTS assay for small molecule agonists of the antioxidant response element (ARE) signaling pathway measured by Nrf2-dependant transcriptional activity (AID 720636; active = well fitted curve in the direction sought with a large enough effect in the repeat runs; inconclusive = weak or mixed curves; inactive = no such curve, though single readings can be large; an effect the other way counts as inactive or inconclusive; note: % of control where 0% means no effect)
# Summary of the method: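 ARE-luc HepG2 cells carrying an Nrf2-responsive luciferase reporter, in medium with 1% dialyzed FBS, exposed to compound for 16 hr at 37 C, 5% CO2. Luminescence read 30 min after ONE-Glo addition.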
# [12] = qHTS assay for cell viability of the p53RE-bla HCT-116 cell line (AID 743292); conditions: p53RE-bla HCT-116 viability, ATP luminescence, 16 h; note: potency is the fitted concentration of half-maximal effect; nearly all actives have a fitted effect of over 55% in size
# Summary of the method: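 CellSensor p53RE-bla HCT-116 cells (4,000/well) pre-incubated 5 h at 37 C, then exposed to compounds in DMSO for 16 h at 37 C. Viability read as ATP content by CellTiter-Glo luminescence after 30 min at room temperature.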
# [13] = Identifying Small Molecule Inhibitors of Pancreatic Cancer Stem Cells (SN12C, Spheroid) (AID 1259360); conditions: Potency: SN12C spheroid viability; note: potency is the fitted concentration of half-maximal effect;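 for viability (% of control): 100% = DMSO-treated cells and 0% = wells without cells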
# Summary of the method: as §2
# [14] = target: Arylsulfatase A (Homo sapiens) (UniProt P15289); assay: qHTS screen for enhancers of Arylsulfatase A (ASA1): LOPAC Validation Assay (AID 720538); conditions: activity change, positive = activation: at 57.5 µM (top of the series); note: potency is the fitted concentration of half-maximal effect
# Summary of the method: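 MLD patient fibroblasts (SV40, ASA-I179S), 1536-well; adhere 6 hrs; cpd 48h, 37 degree C, 5% CO2; pNCS 0.5mM final in lysis buffer, 14h RT; stop 1N NaOH final; fluor. Ex525/Em598.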
structure (smiles),measurement,setting,value
COc1ccc2c(c1)c(CC(=O)O)c(C)n2C(=O)c1ccc(Cl)cc1,Potency,[1],"inconclusive: 20.6 µM [activator, single point]"
CC(=O)N1CCN(c2ccc(OC[C@H]3CO[C@](Cn4ccnc4)(c4ccc(Cl)cc4Cl)O3)cc2)CC1,Potency,[2],"inconclusive: 50.1 µM [cytotoxic, partial curve, poor fit]"
COc1cccc2c1C(=O)c1c(O)c3c(c(O)c1C2=O)C[C@@](O)(C(=O)CO)C[C@@H]3O[C@H]1C[C@H](N)[C@@H](O)[C@H](C)O1,Potency,[3],active: 0.187 µM
same,Potency,[4],active: 0.0042 µM
CN(C)c1nc(Cc2ccc(NC(=O)c3ccc(C(F)(F)F)cc3)cc2)nc(N(C)C)c1CC(=O)O,Potency,[3],"inconclusive: 37.2 µM [inhibitor, partial curve, poor fit]"
same,Potency,[4],inactive
COc1c(C)cnc(Cn2cnc3c(Cl)nc(N)nc32)c1C,Potency,[5],active: 23.5 µM
same,Potency,[3],"inconclusive: 0.148 µM [inhibitor, full curve]"
same,Potency,[6],"inconclusive: 0.187 µM [inhibitor, full curve]"
same,Potency,[7],"inconclusive: 10.5 µM [rising, full curve, poor fit]"
same,Potency,[8],"inconclusive: 0.187 µM [cytotoxic, full curve]"
same,Potency,[9],inactive
Nc1ncnc2c1c(-c1cccc(OCc3ccccc3)c1)cn2C1CC(CN2CCCC2)C1 (centres undefined),Potency,[3],active: 5.26 µM
same,Potency,[4],active: 5.26 µM
O=C1C(CCC(O)c2ccc(F)cc2)C(c2ccc(O)cc2)N1c1ccc(F)cc1 (centres undefined),Potency,[3],"inconclusive: 20.9 µM [inhibitor, partial curve, poor fit]"
same,Potency,[6],inactive
same,Potency,[7],inactive
same,Potency,[9],"inconclusive: 0.187 µM [rising, full curve, poor fit]"
same,IC50 (viability decrease),[10],"inconclusive: 29.6 µM [cytotoxic, single point]"
CC(C)(Sc1ccc(CCN(CCCCC2CCCCC2)C(=O)NC2CCCCC2)cc1)C(=O)O,Potency,[11],inactive
same,Potency,[12],active: 12.6 µM
same,Potency,[3],inactive
same,Potency,[6],active: 4.69 µM
same,Potency,[7],"inconclusive: 0.0418 µM [rising, full curve]"
same,"viability, % of control",[9],inconclusive: 51.9%
same,Potency,[13],inactive
same,IC50 (viability decrease),[10],inactive
Cc1ccc(S(=O)(=O)N[C@@H](Cc2ccccc2)C(=O)CCl)cc1,Potency,[3],active: 18.7 µM
same,Potency,[4],active: 14.8 µM
O=C(Nc1cccc(Cl)c1)Nc1ncc(CCNc2ncnc3ccsc23)s1,Potency,[3],"inconclusive: 0.372 µM [inhibitor, full curve]"
same,Potency,[6],active: 0.235 µM
same,Potency,[7],"inconclusive: 20.9 µM [cytotoxic, single point]"
same,Potency,[9],"inconclusive: 20.9 µM [cytotoxic, partial curve, poor fit]"
same,Potency,[13],"inconclusive: 33.2 µM [cytotoxic, single point]"
same,IC50 (viability decrease),[10],"inconclusive: 14.8 µM [cytotoxic, partial curve]"
CN1CC(=O)NC1=NC(=O)Nc1cccc(Cl)c1,Potency,[3],"inconclusive: 18.7 µM [inhibitor, partial curve, poor fit]"
same,Potency,[4],inactive
CCOc1ccn(-c2ccc(F)cc2)c(=O)c1C(=O)Nc1ccc(Oc2ccnc(N)c2Cl)c(F)c1,Potency,[3],"inconclusive: 37.2 µM [inhibitor, single point]"
same,Potency,[6],"inconclusive: 33.2 µM [inhibitor, single point]"
same,Potency,[7],"inconclusive: 0.526 µM [cytotoxic, full curve, poor fit]"
same,Potency,[9],"inconclusive: 33.2 µM [cytotoxic, single point]"
same,Potency,[13],"inconclusive: 29.6 µM [cytotoxic, partial curve, poor fit]"
same,IC50 (viability decrease),[10],"inconclusive: 20.9 µM [cytotoxic, partial curve]"
CCc1cncnc1N1CCN(Cc2nc3ccc(C(F)(F)F)cc3[nH]2)CC1,Potency,[3],"inconclusive: 16.6 µM [inhibitor, partial curve]"
same,Potency,[6],"inconclusive: 18.7 µM [inhibitor, partial curve]"
same,Potency,[7],"inconclusive: 16.6 µM [cytotoxic, partial curve]"
same,Potency,[8],"inconclusive: 18.7 µM [cytotoxic, partial curve, poor fit]"
same,Potency,[9],"inconclusive: 4.69 µM [cytotoxic, partial curve, poor fit]"
same,Potency,[13],active: 14.8 µM
Cc1cc(-c2nnc3n2CCCCC3)c(C)n1-c1ccccc1,Potency,[3],inactive
same,Potency,[4],active: 18.7 µM
Nc1nccc(-c2ccc3noc(-c4ccc(Cl)cc4)c3c2)n1,Potency,[3],"inconclusive: 29.6 µM [inhibitor, single point]"
same,Potency,[6],"inconclusive: 33.2 µM [inhibitor, single point]"
same,viability (percent of control),[7],inconclusive: 105%
same,Potency,[8],inactive
same,"viability, % of control",[9],inconclusive: 101%
same,IC50 (viability decrease),[10],"inconclusive: 23.5 µM [cytotoxic, partial curve]"
O=C(NCCS(=O)(=O)c1ccc(C(F)(F)F)cn1)c1ccc(Cl)cc1,Potency,[3],inactive
same,Potency,[6],inactive
same,viability (percent of control),[7],inconclusive: 118%
same,Potency,[8],inactive
same,Potency,[9],"inconclusive: 0.0093 µM [rising, full curve, poor fit]"
same,IC50 (viability decrease),[10],inactive
CCCCC[C@H](O)C=C[C@H]1[C@H](O)CC(=O)[C@H]1CCCCCCC(=O)O,Potency,[3],"inconclusive: 1.48 µM [inhibitor, partial curve, poor fit]"
same,Potency,[4],"inconclusive: 26.4 µM [inhibitor, single point]"
Clc1cccc(Cl)c1NC1=NCCN1,Potency,[14],"inconclusive: 0.0426 µM [activator, full curve, poor fit]"
same,Potency,[3],inactive
same,Potency,[6],inactive
CCNC(=O)Nc1ccc(Oc2ncnc(N)c2C=NOC)cc1Cl,Potency,[3],inactive
same,Potency,[4],"inconclusive: 9.35 µM [inhibitor, single point]"
C=CC1=C(C(=O)O)N2C(=O)[C@@H](NC(=O)C(=NO)c3csc(N)n3)[C@H]2SC1,Potency,[3],inactive
same,Potency,[4],inactive
CCOc1cc(C(=O)Nc2ccc(Cl)c(-c3nc4ccccc4[nH]3)c2)cc(OCC)c1OCC,Potency,[3],"inconclusive: 16.6 µM [inhibitor, partial curve]"
same,Potency,[6],"inconclusive: 16.6 µM [inhibitor, partial curve]"
same,Potency,[7],"inconclusive: 0.0833 µM [rising, full curve, poor fit]"
same,Potency,[8],inactive
same,"viability, % of control",[9],inconclusive: 39.3%
same,Potency,[13],inactive
same,IC50 (viability decrease),[10],inactive
Cn1cc(-c2ccc3nnc(Sc4ccc5ncccc5c4)n3n2)cn1,Potency,[3],"inconclusive: 29.6 µM [inhibitor, single point]"
same,Potency,[6],inactive
same,Potency,[7],"inconclusive: 1.66 µM [rising, full curve]"
same,"viability, % of control",[9],inconclusive: 97.6%
COc1nc(C)cnc1NS(=O)(=O)c1cccnc1-c1ccc(-c2nnco2)cc1,Potency,[3],"inconclusive: 18.7 µM [inhibitor, single point]"
same,Potency,[6],inactive
same,viability (percent of control),[7],inconclusive: 108%
same,Potency,[8],inactive
same,"viability, % of control",[9],inconclusive: 142%
same,Potency,[13],inactive
same,IC50 (viability decrease),[10],inactive
CN(C)CCN1C(=O)c2cccc3cc(N)cc(c23)C1=O,Potency,[3],active: 14.8 µM
same,Potency,[4],inactive
CC(=O)O[C@H]1C(=O)[C@@]2(C)C([C@H](OC(=O)c3ccccc3)[C@]3(O)C[C@H](OC(=O)[C@H](O)[C@@H](NC(=O)c4ccccc4)c4ccccc4)C(C)=C1C3(C)C)[C@]1(OC(C)=O)CO[C@@H]1C[C@@H]2O (some centres undefined),Potency,[5],"inconclusive: 6.31 µM [inhibitor, single point]"
same,Potency,[3],"inconclusive: 0.0033 µM [inhibitor, full curve]"
same,Potency,[6],inactive
CC(=O)Nc1cccc(-n2c(=O)n(C3CC3)c(=O)c3c(Nc4ccc(I)cc4F)n(C)c(=O)c(C)c32)c1,Potency,[5],"inconclusive: 0.935 µM [inhibitor, full curve]"
same,Potency,[3],"inconclusive: 4.18 µM [inhibitor, partial curve, poor fit]"
same,Potency,[6],"inconclusive: 4.18 µM [inhibitor, partial curve, poor fit]"
same,Potency,[7],inactive
same,Potency,[8],"inconclusive: 0.0264 µM [cytotoxic, partial curve, poor fit]"
same,Potency,[9],"inconclusive: 23.5 µM [cytotoxic, partial curve, poor fit]"
same,Potency,[13],"inconclusive: 26.4 µM [cytotoxic, partial curve, poor fit]"
NCCCC(N)(C(=O)O)C(F)F (centres undefined),Potency,[3],inactive
same,Potency,[4],inactive
Clc1ccc2ncc(-c3cccc(NC4CNC4)n3)n2c1,Potency,[3],active: 20.9 µM
same,Potency,[6],active: 3.32 µM
same,Potency,[7],"inconclusive: 0.0015 µM [rising, full curve, poor fit]"
same,Potency,[8],"inconclusive: 20.9 µM [cytotoxic, partial curve, poor fit]"
same,Potency,[9],"inconclusive: 18.7 µM [cytotoxic, partial curve, poor fit]"
same,IC50 (viability decrease),[10],"inconclusive: 33.2 µM [cytotoxic, single point]"
O=c1ncn2nc(Sc3ccc(F)cc3F)ccc2c1-c1c(Cl)cccc1Cl,max response,[5],inactive: 5.63%
same,Potency,[3],"inconclusive: 33.2 µM [inhibitor, single point]"
same,Potency,[6],"inconclusive: 26.4 µM [inhibitor, partial curve, poor fit]"
same,Potency,[7],active: 14.8 µM
same,Potency,[8],inactive
same,Potency,[9],"inconclusive: 0.0118 µM [rising, full curve, poor fit]"
same,Potency,[13],"inconclusive: 29.6 µM [cytotoxic, partial curve, poor fit]"
same,IC50 (viability decrease),[10],"inconclusive: 18.7 µM [cytotoxic, partial curve]"
O=C(C[C@@H]1CC=CCCC(=O)O[C@H](c2ccccc2)CNC1=O)NCc1ccc(Cl)cc1,Potency,[3],inactive
same,Potency,[4],inactive
N#CC1(c2cccc(C(=O)Nc3cc(Oc4ccc5nc(NC(=O)C6CC6)sc5n4)ccc3F)c2Cl)CC1,Potency,[3],active: 16.6 µM
same,Potency,[4],"inconclusive: 18.7 µM [inhibitor, partial curve]"
CN(C)c1ccccc1CN1CCCN(Cc2ccccc2N(C)C)C1c1ccncc1,Potency,[3],"inconclusive: 18.7 µM [inhibitor, partial curve]"
same,Potency,[4],"inconclusive: 23.5 µM [inhibitor, partial curve, poor fit]"
